Measurements published in paper PMC7503102.
No constants are given. Whether binding was seen depends on the method and setting. In cells and extracts the contact can be indirect. Some results given as binding are weak or reduced against the parent protein; the word gives no strength.

Amino acid sequences for entries named in this document (tags omitted). A change or cut given only in a name is not applied to a line headed by its entry. Chains listed by the source or under a name are the forms on record and can include a tag or linker.
UniProt O15169: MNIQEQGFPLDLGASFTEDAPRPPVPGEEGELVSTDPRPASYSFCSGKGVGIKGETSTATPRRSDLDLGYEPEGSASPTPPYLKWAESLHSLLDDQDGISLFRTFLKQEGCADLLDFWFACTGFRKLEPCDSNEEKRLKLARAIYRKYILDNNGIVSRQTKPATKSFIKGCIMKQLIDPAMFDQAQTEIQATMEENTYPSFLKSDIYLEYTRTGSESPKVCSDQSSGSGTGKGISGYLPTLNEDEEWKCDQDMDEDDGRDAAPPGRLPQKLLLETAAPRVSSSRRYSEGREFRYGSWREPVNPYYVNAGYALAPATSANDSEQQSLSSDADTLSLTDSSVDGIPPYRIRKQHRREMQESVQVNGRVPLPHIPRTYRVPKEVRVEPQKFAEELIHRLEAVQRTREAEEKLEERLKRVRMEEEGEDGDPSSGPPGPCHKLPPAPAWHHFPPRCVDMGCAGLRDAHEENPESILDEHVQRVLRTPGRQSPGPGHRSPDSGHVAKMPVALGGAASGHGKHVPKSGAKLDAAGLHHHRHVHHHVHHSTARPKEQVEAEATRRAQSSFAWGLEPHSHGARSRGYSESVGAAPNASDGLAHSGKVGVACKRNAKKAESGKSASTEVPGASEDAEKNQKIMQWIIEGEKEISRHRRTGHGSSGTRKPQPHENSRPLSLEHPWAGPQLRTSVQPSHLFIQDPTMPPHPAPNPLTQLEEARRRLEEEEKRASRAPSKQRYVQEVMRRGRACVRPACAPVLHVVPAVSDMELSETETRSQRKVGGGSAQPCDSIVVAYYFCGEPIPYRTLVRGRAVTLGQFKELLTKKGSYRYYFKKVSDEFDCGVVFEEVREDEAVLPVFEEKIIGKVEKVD
UniProt P25054: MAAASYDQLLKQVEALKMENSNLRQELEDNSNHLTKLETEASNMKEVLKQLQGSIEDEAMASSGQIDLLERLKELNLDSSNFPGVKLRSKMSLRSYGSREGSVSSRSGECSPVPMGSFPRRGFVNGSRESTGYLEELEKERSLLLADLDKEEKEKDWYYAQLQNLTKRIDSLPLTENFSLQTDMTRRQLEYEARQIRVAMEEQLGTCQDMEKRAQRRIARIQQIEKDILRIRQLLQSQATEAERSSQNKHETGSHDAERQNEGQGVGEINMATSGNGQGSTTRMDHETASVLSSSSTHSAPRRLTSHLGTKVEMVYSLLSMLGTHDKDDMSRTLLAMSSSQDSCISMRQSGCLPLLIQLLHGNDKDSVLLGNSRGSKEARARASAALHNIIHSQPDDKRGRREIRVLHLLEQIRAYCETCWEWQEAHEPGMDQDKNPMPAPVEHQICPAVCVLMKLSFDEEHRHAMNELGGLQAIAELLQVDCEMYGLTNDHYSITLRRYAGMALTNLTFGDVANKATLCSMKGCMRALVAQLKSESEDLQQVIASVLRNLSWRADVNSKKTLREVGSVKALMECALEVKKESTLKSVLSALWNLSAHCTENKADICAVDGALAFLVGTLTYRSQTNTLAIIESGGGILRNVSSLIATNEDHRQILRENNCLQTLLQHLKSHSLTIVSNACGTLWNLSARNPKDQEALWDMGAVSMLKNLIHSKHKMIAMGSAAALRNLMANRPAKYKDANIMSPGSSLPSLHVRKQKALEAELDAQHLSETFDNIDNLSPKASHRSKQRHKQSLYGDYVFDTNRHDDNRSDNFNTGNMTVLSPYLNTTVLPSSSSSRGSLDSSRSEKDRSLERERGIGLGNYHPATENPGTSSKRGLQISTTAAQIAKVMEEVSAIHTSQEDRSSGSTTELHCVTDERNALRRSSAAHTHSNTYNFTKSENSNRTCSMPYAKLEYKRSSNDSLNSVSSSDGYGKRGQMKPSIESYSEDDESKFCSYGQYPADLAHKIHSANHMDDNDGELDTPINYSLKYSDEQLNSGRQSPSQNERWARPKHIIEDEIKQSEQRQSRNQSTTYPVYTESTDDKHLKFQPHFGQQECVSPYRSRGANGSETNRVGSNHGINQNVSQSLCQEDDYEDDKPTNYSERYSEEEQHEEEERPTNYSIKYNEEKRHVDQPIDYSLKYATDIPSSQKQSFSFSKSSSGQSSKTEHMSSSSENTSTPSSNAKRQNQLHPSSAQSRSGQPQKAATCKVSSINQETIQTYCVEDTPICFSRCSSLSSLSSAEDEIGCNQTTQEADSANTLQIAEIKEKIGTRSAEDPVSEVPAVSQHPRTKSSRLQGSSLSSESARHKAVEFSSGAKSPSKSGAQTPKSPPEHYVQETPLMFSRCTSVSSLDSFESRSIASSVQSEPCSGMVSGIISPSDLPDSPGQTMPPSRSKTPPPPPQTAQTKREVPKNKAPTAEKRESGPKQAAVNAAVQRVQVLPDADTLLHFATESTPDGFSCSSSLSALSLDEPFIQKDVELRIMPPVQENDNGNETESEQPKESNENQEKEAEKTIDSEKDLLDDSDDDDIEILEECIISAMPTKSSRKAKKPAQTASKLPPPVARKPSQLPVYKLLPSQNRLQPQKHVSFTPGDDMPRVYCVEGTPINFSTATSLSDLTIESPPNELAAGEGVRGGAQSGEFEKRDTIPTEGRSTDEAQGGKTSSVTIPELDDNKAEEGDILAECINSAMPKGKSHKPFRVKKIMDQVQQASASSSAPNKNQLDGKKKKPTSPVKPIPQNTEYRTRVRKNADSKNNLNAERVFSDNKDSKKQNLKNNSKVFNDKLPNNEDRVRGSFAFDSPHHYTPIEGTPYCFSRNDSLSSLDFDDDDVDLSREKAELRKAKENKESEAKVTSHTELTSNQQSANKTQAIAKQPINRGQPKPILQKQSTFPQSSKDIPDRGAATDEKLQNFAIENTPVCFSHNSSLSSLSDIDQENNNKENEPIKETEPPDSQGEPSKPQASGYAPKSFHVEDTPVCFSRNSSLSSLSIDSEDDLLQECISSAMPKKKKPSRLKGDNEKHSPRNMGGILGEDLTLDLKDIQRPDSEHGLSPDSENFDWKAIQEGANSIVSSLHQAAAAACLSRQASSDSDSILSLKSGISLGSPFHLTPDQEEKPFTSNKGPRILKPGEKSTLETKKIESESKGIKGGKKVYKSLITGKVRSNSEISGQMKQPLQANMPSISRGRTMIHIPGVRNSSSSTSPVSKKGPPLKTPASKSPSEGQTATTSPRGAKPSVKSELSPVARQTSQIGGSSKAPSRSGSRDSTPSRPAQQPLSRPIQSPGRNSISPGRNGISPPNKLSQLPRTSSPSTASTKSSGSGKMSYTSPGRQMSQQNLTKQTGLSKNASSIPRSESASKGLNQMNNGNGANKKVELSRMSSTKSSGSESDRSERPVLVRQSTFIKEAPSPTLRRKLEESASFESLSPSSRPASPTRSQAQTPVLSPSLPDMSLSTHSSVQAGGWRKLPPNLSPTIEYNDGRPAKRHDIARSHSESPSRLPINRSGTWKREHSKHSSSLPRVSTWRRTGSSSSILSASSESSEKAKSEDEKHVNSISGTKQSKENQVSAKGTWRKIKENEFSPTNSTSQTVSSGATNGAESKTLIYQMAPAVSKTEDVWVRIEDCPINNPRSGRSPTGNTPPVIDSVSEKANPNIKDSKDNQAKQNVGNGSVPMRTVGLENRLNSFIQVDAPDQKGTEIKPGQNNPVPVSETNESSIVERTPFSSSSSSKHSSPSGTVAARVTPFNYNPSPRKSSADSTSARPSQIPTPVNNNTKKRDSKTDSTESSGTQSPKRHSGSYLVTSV
UniProt Q68DV7: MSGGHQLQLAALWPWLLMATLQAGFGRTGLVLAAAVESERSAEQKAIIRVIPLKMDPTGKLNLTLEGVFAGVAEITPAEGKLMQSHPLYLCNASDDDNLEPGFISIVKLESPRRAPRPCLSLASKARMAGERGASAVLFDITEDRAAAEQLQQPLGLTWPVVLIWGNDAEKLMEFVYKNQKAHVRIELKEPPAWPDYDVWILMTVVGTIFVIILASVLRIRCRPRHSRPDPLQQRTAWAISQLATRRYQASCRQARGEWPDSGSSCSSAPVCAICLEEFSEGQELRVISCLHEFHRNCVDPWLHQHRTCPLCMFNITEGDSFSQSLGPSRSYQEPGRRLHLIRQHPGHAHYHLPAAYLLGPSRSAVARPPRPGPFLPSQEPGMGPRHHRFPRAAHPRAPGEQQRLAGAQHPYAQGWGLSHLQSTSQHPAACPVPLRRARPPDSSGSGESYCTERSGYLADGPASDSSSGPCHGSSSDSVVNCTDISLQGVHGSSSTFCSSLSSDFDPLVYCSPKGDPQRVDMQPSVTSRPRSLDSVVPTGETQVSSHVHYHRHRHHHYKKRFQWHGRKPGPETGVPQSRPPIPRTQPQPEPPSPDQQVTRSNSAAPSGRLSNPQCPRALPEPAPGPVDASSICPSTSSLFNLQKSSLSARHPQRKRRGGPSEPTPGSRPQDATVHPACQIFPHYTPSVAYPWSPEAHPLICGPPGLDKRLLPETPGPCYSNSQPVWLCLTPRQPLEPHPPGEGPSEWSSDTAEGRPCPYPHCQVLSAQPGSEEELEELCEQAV
RNF43 ΔW564-P587 (Q68DV7, form named): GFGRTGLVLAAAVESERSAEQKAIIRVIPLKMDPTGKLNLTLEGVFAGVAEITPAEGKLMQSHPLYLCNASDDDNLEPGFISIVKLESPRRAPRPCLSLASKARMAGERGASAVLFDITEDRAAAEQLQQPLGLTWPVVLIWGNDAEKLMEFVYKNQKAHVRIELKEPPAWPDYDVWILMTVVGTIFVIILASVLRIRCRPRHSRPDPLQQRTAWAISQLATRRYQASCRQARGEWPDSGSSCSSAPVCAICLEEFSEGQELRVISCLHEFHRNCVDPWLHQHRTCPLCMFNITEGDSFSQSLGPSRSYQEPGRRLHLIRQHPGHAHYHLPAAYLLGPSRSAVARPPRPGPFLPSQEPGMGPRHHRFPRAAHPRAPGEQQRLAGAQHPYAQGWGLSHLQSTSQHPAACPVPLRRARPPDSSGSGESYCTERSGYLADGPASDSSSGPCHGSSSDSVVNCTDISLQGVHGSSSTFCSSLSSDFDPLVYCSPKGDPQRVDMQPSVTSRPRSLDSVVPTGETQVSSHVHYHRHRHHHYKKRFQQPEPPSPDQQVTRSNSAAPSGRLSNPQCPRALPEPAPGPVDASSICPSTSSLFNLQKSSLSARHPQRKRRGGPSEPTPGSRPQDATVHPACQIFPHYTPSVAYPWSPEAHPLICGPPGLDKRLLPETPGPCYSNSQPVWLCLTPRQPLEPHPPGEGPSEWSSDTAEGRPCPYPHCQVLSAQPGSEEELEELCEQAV
UniProt P49841: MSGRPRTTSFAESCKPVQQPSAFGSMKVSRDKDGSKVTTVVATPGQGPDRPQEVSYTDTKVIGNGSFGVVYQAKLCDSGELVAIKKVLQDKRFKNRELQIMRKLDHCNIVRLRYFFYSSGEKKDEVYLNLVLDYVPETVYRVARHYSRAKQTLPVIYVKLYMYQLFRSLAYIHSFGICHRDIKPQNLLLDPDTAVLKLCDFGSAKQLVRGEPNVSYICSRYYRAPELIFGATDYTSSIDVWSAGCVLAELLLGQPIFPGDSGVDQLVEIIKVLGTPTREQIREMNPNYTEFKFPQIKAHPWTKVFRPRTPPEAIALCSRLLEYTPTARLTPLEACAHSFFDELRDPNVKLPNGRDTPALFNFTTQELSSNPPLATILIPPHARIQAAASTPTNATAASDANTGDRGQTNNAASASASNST
UniProt P49674: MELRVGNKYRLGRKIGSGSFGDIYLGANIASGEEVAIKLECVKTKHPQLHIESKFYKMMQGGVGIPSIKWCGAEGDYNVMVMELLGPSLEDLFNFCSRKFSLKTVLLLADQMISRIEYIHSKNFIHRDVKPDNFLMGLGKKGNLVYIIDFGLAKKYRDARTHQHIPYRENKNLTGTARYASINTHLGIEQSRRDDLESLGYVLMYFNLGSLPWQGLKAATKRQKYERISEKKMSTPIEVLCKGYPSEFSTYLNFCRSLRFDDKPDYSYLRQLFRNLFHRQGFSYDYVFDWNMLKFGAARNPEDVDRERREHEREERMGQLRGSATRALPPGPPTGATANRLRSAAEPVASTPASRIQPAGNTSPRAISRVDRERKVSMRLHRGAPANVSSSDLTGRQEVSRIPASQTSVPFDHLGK

How the values were obtained:
[1] = molecular target: Axin1 (endogenous) (human (endogenous in HEK293T)) (UniProt O15169); experiment: co-IP; endogenous Axin1 precipitated from lysate of HEK293T cells expressing RNF43 variants, RNF43 detected by Western blot
Flag‐APC‐V5 = Flag‐APC‐V5 (UniProt P25054); experiment: co-IP; V5-APC precipitated from lysate of HEK293T cells co-expressing RNF43 variants, RNF43 detected by Western blot
RNF43 R519X (human) = RNF43 R519X (human) (UniProt Q68DV7); experiment: co-IP; RNF43 variants expressed in HEK293T cells precipitated from lysate (50 mM Tris pH 7.5, 150 mM NaCl, 0.5% Triton X-100, 5 mM EDTA), endogenous destruction complex components detected by Western blot; one panel in Axin2KO HEK293T cells treated with control or Axin1 siRNA for 4 days
[2] = molecular target: RNF43–2×Flag–HA, wild type (human) (UniProt Q68DV7); experiment: as above
RNF43 P524X (human) = RNF43 P524X (human) (UniProt Q68DV7); experiment: co-IP; RNF43 variants precipitated from lysate of HEK293T cells co-expressing myc-GSK3β, myc-GSK3β detected by Western blot
[3] = molecular target: RNF43–2×Flag–HA, wild type (human) (UniProt Q68DV7); experiment: as above
RNF43 ΔW564-P587 (human) = RNF43 ΔW564-P587 (human) (UniProt Q68DV7); experiment: co-IP; RNF43 variants expressed in HEK293T cells precipitated from lysate (50 mM Tris pH 7.5, 150 mM NaCl, 0.5% Triton X-100, 5 mM EDTA), endogenous destruction complex components detected by Western blot; one panel in Axin2KO HEK293T cells treated with control or Axin1 siRNA for 4 days

Question: What does the source list for “RNF43–2×Flag–HA, wild type (from UniProt Q68DV7 24-783)”?
Answer: binding [1]: binds; binding (Flag‐APC‐V5): binds

Question: For “RNF43 P524X (from UniProt Q68DV7 24-523) (domain or fragment)”, which binding (Flag‐APC‐V5) is on record?
Answer: Its binding is “binds”.

Question: With “Axin1 (endogenous) (from UniProt O15169 1-862)” as the substance, how does the binding (RNF43 R519X (human)) read?
Answer: Its binding is “binds”.

Question: What about the binding [2] of the same substance?
Answer: Its binding is “binds”.

Question: How did the binding (RNF43 P524X (human)) turn out when “myc‐GSK3β (from UniProt P49841 1-420) (enzyme)” was run?
Answer: Its binding is “binds”.

Question: And the binding [3]?
Answer: The binding was “binds”.

Question: How did the binding [2] turn out when “GSK3β (endogenous) (from UniProt P49841 1-420) (enzyme)” was run?
Answer: The binding was “binds”.

Question: With “Casein kinase 1 epsilon (endogenous) (from UniProt P49674 1-416) (enzyme)” as the substance, how does the binding (RNF43 R519X (human)) read?
Answer: The binding was “binds”.

Question: And the binding [2]?
Answer: The binding was “binds”.

Question: What about the binding (RNF43 ΔW564-P587 (human)) of the same substance?
Answer: Its binding is “binds”.

Question: With “RNF43 R519X (from UniProt Q68DV7 24-518) (domain or fragment)” as the substance, how does the binding [1] read?
Answer: Its binding is “binds”.
